According to patent US20090035364A1, “PARA-SUBSTITUTED 2-ALKOXYPHENOL COMPOUNDS” (priority 2006, published 2009):

Test: Cooling intensity: panelists taste aqueous solutions, compared with menthol at 2 ppm
Format: in vivo, human
Settings: aqueous solution at the concentration listed in Table 1

Row | Compound | Odor
1 | COc1cc(CNC(c2ccccc2)c2ccccc2)ccc1O [Example 1, 4-((benzhydrylamino)methyl)-2-methoxyphenol] | None
2 | COc1cc(COC(c2ccccc2)c2ccccc2)ccc1O [Example 4, 4-((benzhydryloxy)methyl)-2-methoxyphenol] | None
3 | CC1CCC(C(C)C)C(O)C1 (stereo not shown) [I-Menthol, reference compound] | Minty
4 | CCNC(=O)C1CC(C)CCC1C(C)C (stereo not shown) [N-ethyl p-menthanecarboxamide (WS-3), N-ethyl p-menthanecarboxamide, reference compound] | None
